Reference: PubChem BioAssay AID1259308 (NCATS, 2017)
Here is a random part of about 59,000 reagents tested. About 1,510 of all reagents (2.6%) were called active. 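Calls use total luciferase alone and ignore viability, so some active siRNAs may act by altering cell number.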 Further read-outs or replicates are left out here.

Purpose: 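Genes whose loss raises luciferase production in HEK293 cells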 (primary screen)
Cell system: human HEK293 embryonic kidney cells stably expressing firefly luciferase (HEK-CMV-Luc2-Hygro)
Reagents: single siRNA against human genes, 0.8 pmol siRNA per well
Duration: 72 h
Measurement: 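Reporter luminescence and viable-cell signal on separate replicate plates, given as percent of non-targeting control and median/MAD z-scores, plus per-cell luciferase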
Reading the numbers: total luciferase, z-score: higher = more reporter protein produced
Hit rule: 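An siRNA counts as active if its total luciferase robust z-score exceeds 3; genes with two or more such siRNAs out of three were retested with fresh siRNAs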
Calls: active = raised luciferase; inactive = no rise

{"target": "CARD8 (caspase recruitment domain family member 8)", "PubChem SID": "SID160733004", "total luciferase, z-score": 1.49, "Call": "inactive"}
{"target": "CARD8 (caspase recruitment domain family member 8)", "PubChem SID": "SID160733012", "total luciferase, z-score": 0.0463, "Call": "inactive"}
{"target": "CARD8 (caspase recruitment domain family member 8)", "PubChem SID": "SID160733022", "total luciferase, z-score": -0.354, "Call": "inactive"}
{"target": "SPACDR (sperm acrosome developmental regulator)", "PubChem SID": "SID160725356", "total luciferase, z-score": -0.379, "Call": "inactive"}
{"target": "SPACDR (sperm acrosome developmental regulator)", "PubChem SID": "SID160767459", "total luciferase, z-score": 0.599, "Call": "inactive"}
{"target": "SPACDR (sperm acrosome developmental regulator)", "PubChem SID": "SID160767460", "total luciferase, z-score": 0.566, "Call": "inactive"}

A run of entries taken from the entries so far, for reference:
{"target": "SPACDR (sperm acrosome developmental regulator)", "PubChem SID": "SID160725356", "total luciferase, z-score": -0.379, "Call": "inactive"}
{"target": "SPACDR (sperm acrosome developmental regulator)", "PubChem SID": "SID160767459", "total luciferase, z-score": 0.599, "Call": "inactive"}

Continued:
{"target": "DMWD (DM1 locus, WD repeat containing)", "PubChem SID": "SID160755083", "total luciferase, z-score": -1.57, "Call": "inactive"}
{"target": "DMWD (DM1 locus, WD repeat containing)", "PubChem SID": "SID160755093", "total luciferase, z-score": -0.0564, "Call": "inactive"}
{"target": "DMWD (DM1 locus, WD repeat containing)", "PubChem SID": "SID160755104", "total luciferase, z-score": 0.431, "Call": "inactive"}
{"target": "RABGGTB (Rab geranylgeranyltransferase subunit beta)", "PubChem SID": "SID160715565", "total luciferase, z-score": -0.46, "Call": "inactive"}
{"target": "RABGGTB (Rab geranylgeranyltransferase subunit beta)", "PubChem SID": "SID160715566", "total luciferase, z-score": -0.121, "Call": "inactive"}
{"target": "RABGGTB (Rab geranylgeranyltransferase subunit beta)", "PubChem SID": "SID160715567", "total luciferase, z-score": -0.446, "Call": "inactive"}
